The entries are a selection whose mix differs from that of the whole data set. Calls are pooled over several reports, among them a noisy single-well screen. The list shows a part of the results.
What was measured:
Settings in all cases: stereoisomer not certain
UniProt E9PVX1 = molecular target: T1, UniProt E9PVX1
T1 sequence (whole entry): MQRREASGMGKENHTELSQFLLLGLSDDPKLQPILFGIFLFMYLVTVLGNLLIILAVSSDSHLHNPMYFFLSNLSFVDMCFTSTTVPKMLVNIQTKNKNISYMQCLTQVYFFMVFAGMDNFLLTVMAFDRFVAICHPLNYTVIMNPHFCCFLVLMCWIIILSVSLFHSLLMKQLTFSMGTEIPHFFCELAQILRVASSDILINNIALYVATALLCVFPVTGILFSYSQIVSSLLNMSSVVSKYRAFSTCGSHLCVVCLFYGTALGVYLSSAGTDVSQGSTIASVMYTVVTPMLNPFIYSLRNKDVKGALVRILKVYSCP
Procedure, shortened: (§1)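 Values were gathered from published papers (main text and supplementary material), with extra details requested from the original authors when needed, and checked for typos and inconsistencies. Each receptor–molecule pair is called responsive (active) if the original authors judged the measured signal statistically different from baseline, and non-responsive (inactive) otherwise. Assay methods varied by source, often transient mammalian cell-line luciferase assays. Recorded details include cell line, G-protein, co-transfected protein and tags.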

Protein sequences, listed by entry. Tags and fused reporters are not part of them. Chains listed by the source or under a name are the forms on record and can include a tag or linker.
UniProt D1MFA5, as listed by the source: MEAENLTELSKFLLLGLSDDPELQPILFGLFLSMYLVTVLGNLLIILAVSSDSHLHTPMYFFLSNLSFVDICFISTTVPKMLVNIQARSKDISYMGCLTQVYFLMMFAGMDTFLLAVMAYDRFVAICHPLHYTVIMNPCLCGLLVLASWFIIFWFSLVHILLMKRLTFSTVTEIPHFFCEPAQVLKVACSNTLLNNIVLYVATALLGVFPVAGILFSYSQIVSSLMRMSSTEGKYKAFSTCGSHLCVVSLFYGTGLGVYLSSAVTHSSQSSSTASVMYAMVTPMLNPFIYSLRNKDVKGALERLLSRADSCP
UniProt E1BM68, as listed by the source: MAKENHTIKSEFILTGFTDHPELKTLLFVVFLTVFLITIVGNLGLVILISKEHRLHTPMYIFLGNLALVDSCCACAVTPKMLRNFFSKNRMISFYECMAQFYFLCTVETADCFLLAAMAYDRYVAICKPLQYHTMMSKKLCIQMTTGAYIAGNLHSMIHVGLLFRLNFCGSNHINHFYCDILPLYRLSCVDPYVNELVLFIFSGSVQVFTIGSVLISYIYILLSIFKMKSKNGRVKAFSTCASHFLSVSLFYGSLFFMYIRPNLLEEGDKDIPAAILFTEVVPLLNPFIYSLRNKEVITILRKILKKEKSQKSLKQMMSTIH
UniProt E9PXH6, as listed by the source: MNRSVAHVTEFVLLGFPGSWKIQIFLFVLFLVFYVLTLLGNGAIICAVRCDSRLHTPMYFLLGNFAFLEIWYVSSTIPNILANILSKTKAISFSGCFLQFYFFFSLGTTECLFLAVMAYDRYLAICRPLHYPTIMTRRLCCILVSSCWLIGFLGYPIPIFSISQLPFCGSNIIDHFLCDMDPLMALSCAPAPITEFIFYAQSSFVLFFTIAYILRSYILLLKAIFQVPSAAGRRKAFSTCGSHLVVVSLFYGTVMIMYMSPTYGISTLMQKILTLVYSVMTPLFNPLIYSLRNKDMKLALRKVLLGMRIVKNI
UniProt E1BBG9, as listed by the source: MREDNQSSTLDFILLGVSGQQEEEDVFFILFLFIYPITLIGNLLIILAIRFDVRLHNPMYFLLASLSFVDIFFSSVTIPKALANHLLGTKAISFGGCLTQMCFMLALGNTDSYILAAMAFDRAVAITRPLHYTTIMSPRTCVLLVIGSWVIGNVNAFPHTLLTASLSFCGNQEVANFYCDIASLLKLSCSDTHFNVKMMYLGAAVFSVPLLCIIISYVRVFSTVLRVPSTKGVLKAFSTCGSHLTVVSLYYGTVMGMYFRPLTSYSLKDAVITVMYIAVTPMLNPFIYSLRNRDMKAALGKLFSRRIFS

UniProt E9PX47 = molecular target: T2, UniProt E9PX47
T2 sequence (whole entry): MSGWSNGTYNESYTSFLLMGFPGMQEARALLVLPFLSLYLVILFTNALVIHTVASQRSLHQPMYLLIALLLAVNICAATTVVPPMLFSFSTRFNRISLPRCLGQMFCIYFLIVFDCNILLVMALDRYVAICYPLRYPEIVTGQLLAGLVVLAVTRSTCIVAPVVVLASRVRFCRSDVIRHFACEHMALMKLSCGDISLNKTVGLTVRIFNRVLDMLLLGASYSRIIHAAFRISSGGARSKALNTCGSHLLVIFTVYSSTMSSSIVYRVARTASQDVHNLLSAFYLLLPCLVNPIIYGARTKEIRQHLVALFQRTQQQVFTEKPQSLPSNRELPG
Procedure, shortened: as §1

UniProt E9PXN3 = molecular target: T3, UniProt E9PXN3
T3 sequence (whole entry): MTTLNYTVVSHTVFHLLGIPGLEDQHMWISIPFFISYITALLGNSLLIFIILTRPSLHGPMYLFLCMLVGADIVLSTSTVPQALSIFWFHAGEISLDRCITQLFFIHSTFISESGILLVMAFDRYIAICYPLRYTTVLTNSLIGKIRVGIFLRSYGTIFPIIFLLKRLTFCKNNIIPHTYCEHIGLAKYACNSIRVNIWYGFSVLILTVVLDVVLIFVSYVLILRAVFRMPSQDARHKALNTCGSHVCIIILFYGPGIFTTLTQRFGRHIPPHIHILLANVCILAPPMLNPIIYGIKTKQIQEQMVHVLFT
Procedure, shortened: as §1

UniProt E9PZ66 = molecular target: T4, UniProt E9PZ66
T4 sequence (whole entry): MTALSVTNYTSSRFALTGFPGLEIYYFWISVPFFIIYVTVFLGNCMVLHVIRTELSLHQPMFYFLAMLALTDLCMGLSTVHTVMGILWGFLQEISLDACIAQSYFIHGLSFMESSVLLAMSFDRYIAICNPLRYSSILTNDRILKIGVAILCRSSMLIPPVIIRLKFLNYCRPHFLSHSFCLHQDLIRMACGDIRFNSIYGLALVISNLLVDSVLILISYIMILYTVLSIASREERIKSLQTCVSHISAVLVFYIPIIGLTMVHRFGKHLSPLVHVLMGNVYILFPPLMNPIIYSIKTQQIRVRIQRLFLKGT
Procedure, shortened: as §1

UniProt E9Q4X7 = molecular target: T5, UniProt E9Q4X7
T5 sequence (whole entry): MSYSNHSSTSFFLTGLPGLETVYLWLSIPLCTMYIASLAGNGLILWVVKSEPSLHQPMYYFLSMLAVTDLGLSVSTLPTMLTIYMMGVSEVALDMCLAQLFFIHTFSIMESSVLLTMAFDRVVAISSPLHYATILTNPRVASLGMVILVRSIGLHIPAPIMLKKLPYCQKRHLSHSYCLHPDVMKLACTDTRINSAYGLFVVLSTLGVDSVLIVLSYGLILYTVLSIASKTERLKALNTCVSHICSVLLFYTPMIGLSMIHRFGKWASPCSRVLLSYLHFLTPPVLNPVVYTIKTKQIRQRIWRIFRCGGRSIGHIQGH
Procedure, shortened: as §1

UniProt E9Q546 = molecular target: T6, UniProt E9Q546
T6 sequence (whole entry): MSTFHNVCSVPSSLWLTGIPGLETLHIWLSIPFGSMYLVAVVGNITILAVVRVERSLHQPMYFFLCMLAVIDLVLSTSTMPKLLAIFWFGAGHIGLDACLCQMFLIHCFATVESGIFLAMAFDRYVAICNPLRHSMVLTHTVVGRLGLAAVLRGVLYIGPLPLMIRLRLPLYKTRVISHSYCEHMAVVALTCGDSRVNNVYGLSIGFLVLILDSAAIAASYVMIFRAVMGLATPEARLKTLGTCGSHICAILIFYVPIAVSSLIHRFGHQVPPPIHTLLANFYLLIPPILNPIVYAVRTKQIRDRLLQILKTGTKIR
Procedure, shortened: as §1

UniProt D1MFA5 = molecular target: UniProt D1MFA5
Procedure, shortened: as §1

UniProt E1BM68 = molecular target: UniProt E1BM68
Procedure, shortened: as §1

UniProt E9PXH6 = molecular target: UniProt E9PXH6
Procedure, shortened: as §1

UniProt E1BBG9 = molecular target: UniProt E1BBG9
Procedure, shortened: as §1

Measured: odorant receptor agonist call

CCCCCCC=O
inactive: UniProt E9PVX1 | UniProt E9PX47 | UniProt E9PXN3 | UniProt E9PZ66 | UniProt E9Q4X7 | UniProt E9Q546

CC12C=CCC1C1CCC3CC(=O)CCC3(C)C1CC2 (stereo unspecified)
active: UniProt D1MFA5

c1cnccn1
inactive: UniProt E9PVX1 | UniProt E9PZ66 | UniProt E9Q4X7 | UniProt E9Q546

CC1COCc2cc3c(cc21)C(C)(C)C(C)C3(C)C (stereo unspecified)
active: UniProt E9Q4X7
inactive: UniProt E9PVX1 | UniProt E9PZ66 | UniProt E9Q546

CC(C)=CCCC(C)=CC=O
inactive: UniProt E9PVX1 | UniProt E9PZ66 | UniProt E9Q4X7 | UniProt E9Q546

C=CCc1ccc(OC)c(OC)c1
active: UniProt E1BM68
inactive: UniProt E9PVX1 | UniProt E9PZ66 | UniProt E9Q4X7 | UniProt E9Q546

O=C1CCCCCCCCCCCCCCO1
active: UniProt E9PVX1
inactive: UniProt E9PZ66 | UniProt E9Q4X7 | UniProt E9Q546

C=CCc1ccc(O)c(OC)c1
inactive: UniProt E9PVX1 | UniProt E9PX47 | UniProt E9PXN3 | UniProt E9PZ66 | UniProt E9Q4X7 | UniProt E9Q546

CC12CCC(C1)C(C)(C)C2=O (stereo unspecified)
inactive: UniProt E9Q546

C=CC(C)(O)CCC=C(C)C (stereo unspecified)
inactive: UniProt E9PVX1 | UniProt E9PZ66 | UniProt E9Q4X7 | UniProt E9Q546

CCCCCOC(C)=O
inactive: UniProt E9PVX1 | UniProt E9PX47 | UniProt E9PXN3 | UniProt E9PZ66 | UniProt E9Q4X7 | UniProt E9Q546

COc1ccccc1O
inactive: UniProt E9PVX1 | UniProt E9PZ66 | UniProt E9Q4X7 | UniProt E9Q546

CC(C)(O)CCCC1=CCC(C=O)CC1 (stereo unspecified)
inactive: UniProt E9PVX1 | UniProt E9PZ66 | UniProt E9Q4X7 | UniProt E9Q546

CCCCCCCCC=O
inactive: UniProt E9PVX1 | UniProt E9PX47 | UniProt E9PXN3 | UniProt E9PZ66 | UniProt E9Q4X7 | UniProt E9Q546

CCCCCCCCCC=O
inactive: UniProt E9PVX1 | UniProt E9PXN3 | UniProt E9PZ66 | UniProt E9Q4X7 | UniProt E9Q546

CCCCCC(=O)O
active: UniProt E9PXN3 | UniProt E9PZ66
inactive: UniProt E9PVX1 | UniProt E9PX47 | UniProt E9Q4X7 | UniProt E9Q546

CCCCCCCC=O
inactive: UniProt E9PVX1 | UniProt E9PXN3 | UniProt E9PZ66 | UniProt E9Q4X7 | UniProt E9Q546

CC12CCC(CC1)C(C)(C)O2
inactive: UniProt E9PVX1 | UniProt E9PZ66 | UniProt E9Q4X7 | UniProt E9Q546

COc1cc(C=O)ccc1O
inactive: UniProt E9PVX1 | UniProt E9PZ66 | UniProt E9Q4X7 | UniProt E9Q546

CC(=O)c1ccccc1
active: UniProt E9PXH6
not listed: UniProt D1MFA5 | UniProt E1BM68 | UniProt E1BBG9
inactive: all other assays above

CC12C=CCC1C1CCC3=CC(=O)CCC3(C)C1CC2 (stereo unspecified)
active: UniProt D1MFA5

COC(=O)c1ccccc1O
inactive: UniProt E9PVX1 | UniProt E9PZ66 | UniProt E9Q4X7 | UniProt E9Q546

CC(=O)C(C)=O
inactive: UniProt E9PVX1 | UniProt E9PZ66 | UniProt E9Q4X7 | UniProt E9Q546

CC(=O)OC1CC2CCC1(C)C2(C)C (stereo unspecified)
inactive: UniProt E9PVX1 | UniProt E9PZ66 | UniProt E9Q4X7 | UniProt E9Q546

O=C1CCCCC1
inactive: UniProt E9Q546

CCCCO
inactive: UniProt E9PVX1 | UniProt E9PZ66 | UniProt E9Q4X7 | UniProt E9Q546

CCCCCCCCCCC=O
inactive: UniProt E9PXN3

CCCCCC(C)=O
inactive: UniProt E9PVX1 | UniProt E9PZ66 | UniProt E9Q4X7 | UniProt E9Q546

CC(C)CC(=O)O
active: UniProt E9PZ66
inactive: UniProt E9PVX1 | UniProt E9PX47 | UniProt E9PXN3 | UniProt E9Q4X7 | UniProt E9Q546

C=C(C)C1CC=C(C)C(=O)C1 (stereo unspecified)
active: UniProt E1BBG9 | UniProt E9PXH6
not listed: UniProt D1MFA5 | UniProt E1BM68
inactive: all other assays above

CC(C)C=O
inactive: UniProt E9PVX1 | UniProt E9PZ66 | UniProt E9Q4X7 | UniProt E9Q546
